# The whole screen tested about 300,000 compounds, of which about 5,400 (1.8%) were called active. Inconclusive results, whose numbers are uncertain, are shown with a selection of clear calls. Calls come from the whole dose curve; tested in HEK293 cells. Where the call is inconclusive, the potency comes from a doubtful curve fit.
# Assay: qHTS for inhibitors of binding or entry into cells for Marburg Virus
# Details: Marburg virus pseudotyped entry inhibition, cell reporter; series mostly up to 37.8 µM
# Potency is the fitted concentration of half-maximal effect.
row,SMILES,Potency
1,CCCCc1nc(NCCO)c(C#N)c2c1CCCC2,"inconclusive: 11.2 µM [inhibitor, partial curve]"
2,COc1ccc(C(=O)/C=C/NCc2ccc(C)cc2)cc1,inactive
3,Cn1c(SC2CCCCC2=O)nnc1-c1ccncc1 (stereo not drawn),"inconclusive: 0.206 µM [activator, single point]"
4,CCn1nc(C)cc1C(=O)N1CCCC(N2CCN(c3ccccc3OC)CC2)C1 (stereo not drawn),inactive
5,COc1ccc(S(=O)(=O)NNC(=O)c2csc(-n3nc(C)cc3C(F)(F)F)n2)cc1OC,inactive
6,Cc1nc(NCCc2ccccc2)c2oc3ccccc3c2n1,"inconclusive: 14.6 µM [inhibitor, single point]"
7,COc1ccc(CCNS(=O)(=O)CCNC(=O)c2ccc3c(c2)OCO3)cc1,inactive
8,Cc1noc(C)c1COc1ccc(C(=O)OCc2nnc(-c3ccc(Cl)cc3)o2)cc1,"inconclusive: 20 µM [activator, partial curve, poor fit]"
9,O=C(N/N=C/c1c[nH]c2ccccc12)c1ccccc1Cl,inactive
10,COc1cccc(-c2ccc(C#N)c(OC(=O)c3c(Cl)cccc3Cl)n2)c1,"inconclusive: 15.8 µM [inhibitor, partial curve, poor fit]"
11,Cc1ccc(C2=NNC(=O)C(c3ccc(Cl)cc3)C2)cc1 (stereo not drawn),inactive
12,CN1CCN(S(=O)(=O)c2ccc(Cl)s2)CC1,"inconclusive: 2.51 µM [inhibitor, full curve]"
13,Cc1ccc(C(=O)NN2C(=O)/C(=C/c3cccn3C)SC2=S)cc1,"inconclusive: 7.94 µM [inhibitor, partial curve, poor fit]"
14,Cc1ccc(C)c(N2CCN(C(=O)c3ccccc3Br)CC2)c1,"inconclusive: 15.8 µM [inhibitor, single point]"
15,O=C(Nc1ccccc1-c1ccccc1)NC1CC2CCCC(C1)N2Cc1ccc(F)cc1 (stereo not drawn),"inconclusive: 6.51 µM [inhibitor, partial curve, poor fit]"
16,Cc1nn2cnnc2c(C)c1Cc1c(F)cccc1Cl,"inconclusive: 35.5 µM [inhibitor, single point]"
17,Cn1ncc(C#N)c1/N=C/N(Cc1ccccc1)Cc1ccccc1,"inconclusive: 15.8 µM [inhibitor, partial curve, poor fit]"
18,CC1(C)N=C(c2ccccc2)C(c2ccccc2)=N1,inactive
19,COc1ccc(/C=N/OC(=O)Nc2ccccc2)cc1[N+](=O)[O-],"inconclusive: 8.2 µM [activator, partial curve]"
20,CN1CCc2nc3sc(C#N)c(N)c3c(-c3cccs3)c2C1,inactive
21,Cc1cc(C)c2c(-n3cccc3)c(C(=O)NCC(C)c3ccccc3)sc2n1 (stereo not drawn),"inconclusive: 2.51 µM [activator, single point]"
22,COc1ccc(CNC(=O)C2CCN(S(=O)(=O)c3ccc4c(ccn4C)c3)CC2)cc1,inactive
23,Cc1ccc(NS(=O)(=O)c2cccs2)cc1S(=O)(=O)N1CCCCCC1,active: 10 µM

# Shown tab-delimited: 13 of the compounds above.
row	SMILES	Potency
1	CCCCc1nc(NCCO)c(C#N)c2c1CCCC2	inconclusive: 11.2 µM [inhibitor, partial curve]
7	COc1ccc(CCNS(=O)(=O)CCNC(=O)c2ccc3c(c2)OCO3)cc1	inactive
8	Cc1noc(C)c1COc1ccc(C(=O)OCc2nnc(-c3ccc(Cl)cc3)o2)cc1	inconclusive: 20 µM [activator, partial curve, poor fit]
10	COc1cccc(-c2ccc(C#N)c(OC(=O)c3c(Cl)cccc3Cl)n2)c1	inconclusive: 15.8 µM [inhibitor, partial curve, poor fit]
13	Cc1ccc(C(=O)NN2C(=O)/C(=C/c3cccn3C)SC2=S)cc1	inconclusive: 7.94 µM [inhibitor, partial curve, poor fit]
15	O=C(Nc1ccccc1-c1ccccc1)NC1CC2CCCC(C1)N2Cc1ccc(F)cc1 (stereo not drawn)	inconclusive: 6.51 µM [inhibitor, partial curve, poor fit]
16	Cc1nn2cnnc2c(C)c1Cc1c(F)cccc1Cl	inconclusive: 35.5 µM [inhibitor, single point]
17	Cn1ncc(C#N)c1/N=C/N(Cc1ccccc1)Cc1ccccc1	inconclusive: 15.8 µM [inhibitor, partial curve, poor fit]
18	CC1(C)N=C(c2ccccc2)C(c2ccccc2)=N1	inactive
19	COc1ccc(/C=N/OC(=O)Nc2ccccc2)cc1[N+](=O)[O-]	inconclusive: 8.2 µM [activator, partial curve]
20	CN1CCc2nc3sc(C#N)c(N)c3c(-c3cccs3)c2C1	inactive
21	Cc1cc(C)c2c(-n3cccc3)c(C(=O)NCC(C)c3ccccc3)sc2n1 (stereo not drawn)	inconclusive: 2.51 µM [activator, single point]
23	Cc1ccc(NS(=O)(=O)c2cccs2)cc1S(=O)(=O)N1CCCCCC1	active: 10 µM

# Remaining list, next part.

row,SMILES,Potency
1,COc1ccc(-c2nc3ccccc3s2)cc1NC(C)=O,"inconclusive: 1.41 µM [activator, partial curve, poor fit]"
2,CCCCCn1c(=O)c(C(=O)Nc2cccc(C)n2)c(O)c2ccccc21,"inconclusive: 14.1 µM [activator, single point]"
3,CC(C)c1cccc(C(C)C)c1NS(=O)(=O)c1cccs1,"inconclusive: 2 µM [inhibitor, full curve, poor fit]"
4,O=C1CN(C(=O)CSc2nnc3ccccn23)c2ccccc2N1,"inconclusive: 1.26 µM [inhibitor, single point]"
5,CCCCCc1nnc(NC(=O)C2CCCO2)s1 (stereo not drawn),inactive
6,CCCCNc1nc2ccccc2n1CC(=O)N1CCc2ccccc2C1,inactive
7,Cc1ccccc1Cn1c2ccccc2c2cnn(CC(=O)NCCc3ccc(Cl)cc3)c(=O)c21,"inconclusive: 25.1 µM [activator, partial curve, poor fit]"
8,COc1ccccc1N1CCN(C(=O)C(Sc2ccccc2)c2ccccc2)CC1 (stereo not drawn),active: 6.31 µM
9,CC(C)(C)Cn1c(=O)[nH]c(=O)c2cc([N+](=O)[O-])cnc21,"inconclusive: 14.1 µM [activator, partial curve, poor fit]"
10,O=C(Nc1ccn(Cc2ccccc2F)n1)c1ccc(COc2cccc(Br)c2)cc1,active: 8.91 µM
11,COc1cc(-c2nnc(COc3ccc4ccccc4c3)o2)cc(OC)c1OC,inactive
12,N#CCCn1c(SCC(=O)c2c[nH]c3ccccc23)nc2ccccc21,"inconclusive: 6.31 µM [activator, single point]"
13,C/C(CC(C)C)=N\Nc1ccc(S(N)(=O)=O)cc1[N+](=O)[O-],"inconclusive: 35.5 µM [inhibitor, single point]"
14,O=C(NCc1ccccc1)c1ccc(CS(=O)(=O)c2ccccc2)o1,"inconclusive: 2.31 µM [activator, partial curve, poor fit]"
15,CCCc1[nH]nc2c1C(c1cccc(OC(=O)c3ccco3)c1)C(C#N)=C(N)O2 (stereo not drawn),"inconclusive: 8.2 µM [activator, partial curve]"
16,OC1CCN(c2c3c(nc4cc(-c5ccc(Cl)cc5)nn24)CCC3)CC1,inactive
17,CC(=O)N1N=C(c2ccccc2)OC1(C)CC(=O)Nc1ccccc1 (stereo not drawn),"inconclusive: 12.6 µM [activator, single point]"
18,Cc1nn(C(C)C(=O)NCCN2CCCC2)c(=O)c2c1sc1ccccc12 (stereo not drawn),"inconclusive: 35.5 µM [inhibitor, single point]"
19,O=C(Nc1ccc2snnc2c1)N1CCCCC1,inactive
20,COc1ccc(CCN2CN(S(=O)(=O)c3ccccc3)c3nc4ccccc4nc32)cc1,"inconclusive: 35.5 µM [inhibitor, single point]"
21,CCOc1ncccc1C(=O)Nc1cccc(C(=O)Nc2cccc(S(=O)(=O)CCO)c2)c1,"inconclusive: 1 µM [inhibitor, full curve]"
22,NC(CCCCCP(=O)(O)O)C(=O)O (stereo not drawn),"inconclusive: 5.8 µM [inhibitor, partial curve]"
23,OCCN1CCN(Cc2cc(Cl)c3cccnc3c2O)CC1,"inconclusive: 18.3 µM [inhibitor, partial curve, poor fit]"

row,SMILES,Potency
1,COc1cc(C(=O)NC2(C(F)(F)F)NC(=O)N(CCCc3ccccc3)C2=O)cc(OC)c1OC (stereo not drawn),"inconclusive: 5.17 µM [inhibitor, partial curve, poor fit]"
2,Cc1nc2ccccc2n1/C(=N\S(=O)(=O)c1ccccc1)c1ccccc1,"inconclusive: 0.631 µM [inhibitor, full curve, poor fit]"
3,NS(=O)(=O)c1ccc(Nc2nc(-c3ccc(O)cc3)cs2)cc1,inactive
4,CCOC(=O)C1(c2ccccc2)NC(c2ccccc2C)C2C(=O)N(c3ccc4c(c3)OCO4)C(=O)C21 (stereo not drawn),"inconclusive: 11.2 µM [inhibitor, partial curve]"
5,O=C(Nc1cccnc1)c1cn(-c2ccccc2)nc1-c1cccs1,inactive
6,CN(CC(=O)Nc1ccc(F)cc1)CC(=O)Nc1ccc(Cl)c(S(=O)(=O)N2CCOCC2)c1,"inconclusive: 35.5 µM [inhibitor, single point]"
7,Cc1cc(C(=O)Nc2sc3c(c2C#N)CCCC3)no1,"inconclusive: 11.6 µM [inhibitor, partial curve, poor fit]"
8,CCc1ccc(NC(=O)C2CCN(S(=O)(=O)c3ccc4c(c3)NC(=O)C(C)S4)CC2)cc1 (stereo not drawn),"inconclusive: 35.5 µM [inhibitor, single point]"
9,COc1cc(C(=O)OCC(=O)Nc2ccc(C)cc2)cc(OC)c1OC,"inconclusive: 4.47 µM [inhibitor, full curve]"
10,CN(C)S(=O)(=O)c1ccc(N2CCOCC2)nc1,"inconclusive: 18.3 µM [activator, partial curve, poor fit]"
11,CCc1ccc(-c2nc(CSCC(=O)NCc3ccc(C)cc3)c(C)o2)cc1,inactive
12,CCN(CC)CCN(C(=O)CCS(=O)(=O)c1ccccc1)c1nc2cc(C)cc(C)c2s1,"inconclusive: 11.2 µM [inhibitor, partial curve, poor fit]"
13,CCc1ccc(NC(=O)c2sc3nc(C)cc(C)c3c2NC(=O)c2ccccc2OC)cc1,inactive
14,Oc1ccc(C2C(c3ccccc3)=NN=C(c3ccccc3F)N2O)c(O)c1 (stereo not drawn),"inconclusive: 3.98 µM [activator, partial curve, poor fit]"
15,NCc1cccc(-n2cccn2)c1,inactive
16,O=c1[nH]c(=S)[nH]c(O)c1N=Nc1ccc(S(=O)(=O)N2CCc3ccccc32)cc1,inactive
17,Cn1c(O)c(N=NC(=O)c2ccco2)c2ccccc21,"inconclusive: 17.8 µM [inhibitor, partial curve, poor fit]"
18,COCCn1c(-c2ccc(OC)cc2)cnc1N,"inconclusive: 7.3 µM [activator, partial curve, poor fit]"
19,Brc1ccccc1-c1nnc(SCc2nc3ccccc3s2)o1,"inconclusive: 0.112 µM [activator, full curve, poor fit]"
20,Cc1cccc(NS(=O)(=O)c2cccc(C(=O)NCC(c3ccco3)N3CCCCC3)c2)c1 (stereo not drawn),"inconclusive: 2 µM [inhibitor, partial curve, poor fit]"
21,Cc1ccc(CN2CCN(/N=C/c3cc(Br)cc(Br)c3O)CC2)c(C)c1,"inconclusive: 2 µM [activator, single point]"
22,O=C(CSc1nnc(-c2ccccc2O)n1-c1ccccc1)Nc1cccc(C(=O)O)c1,"inconclusive: 6.31 µM [inhibitor, partial curve, poor fit]"
